Reference: patent US20240342320A1, “POLYPEPTIDE TARGETING INTEGRIN ALPHA 6 AND USE THEREOF” (GUANGZHOU GENBIONOVA MEDICAL TECHNOLOGY CO., LTD., priority 2021, published 2024)
Results are given in words; binding and its absence hold for the method and conditions named. Some results given as binding are weak or reduced against the parent protein; the word gives no strength.

Legend:
[1] = target: T1, Integrin α6 on human tumor cells with high integrin α6 expression (human) (UniProt P23229); test: flow cytometry of FITC peptide on HCCLM3, Huh-7, S18 and MDA-MB-231 cells
T1 sequence (looked up): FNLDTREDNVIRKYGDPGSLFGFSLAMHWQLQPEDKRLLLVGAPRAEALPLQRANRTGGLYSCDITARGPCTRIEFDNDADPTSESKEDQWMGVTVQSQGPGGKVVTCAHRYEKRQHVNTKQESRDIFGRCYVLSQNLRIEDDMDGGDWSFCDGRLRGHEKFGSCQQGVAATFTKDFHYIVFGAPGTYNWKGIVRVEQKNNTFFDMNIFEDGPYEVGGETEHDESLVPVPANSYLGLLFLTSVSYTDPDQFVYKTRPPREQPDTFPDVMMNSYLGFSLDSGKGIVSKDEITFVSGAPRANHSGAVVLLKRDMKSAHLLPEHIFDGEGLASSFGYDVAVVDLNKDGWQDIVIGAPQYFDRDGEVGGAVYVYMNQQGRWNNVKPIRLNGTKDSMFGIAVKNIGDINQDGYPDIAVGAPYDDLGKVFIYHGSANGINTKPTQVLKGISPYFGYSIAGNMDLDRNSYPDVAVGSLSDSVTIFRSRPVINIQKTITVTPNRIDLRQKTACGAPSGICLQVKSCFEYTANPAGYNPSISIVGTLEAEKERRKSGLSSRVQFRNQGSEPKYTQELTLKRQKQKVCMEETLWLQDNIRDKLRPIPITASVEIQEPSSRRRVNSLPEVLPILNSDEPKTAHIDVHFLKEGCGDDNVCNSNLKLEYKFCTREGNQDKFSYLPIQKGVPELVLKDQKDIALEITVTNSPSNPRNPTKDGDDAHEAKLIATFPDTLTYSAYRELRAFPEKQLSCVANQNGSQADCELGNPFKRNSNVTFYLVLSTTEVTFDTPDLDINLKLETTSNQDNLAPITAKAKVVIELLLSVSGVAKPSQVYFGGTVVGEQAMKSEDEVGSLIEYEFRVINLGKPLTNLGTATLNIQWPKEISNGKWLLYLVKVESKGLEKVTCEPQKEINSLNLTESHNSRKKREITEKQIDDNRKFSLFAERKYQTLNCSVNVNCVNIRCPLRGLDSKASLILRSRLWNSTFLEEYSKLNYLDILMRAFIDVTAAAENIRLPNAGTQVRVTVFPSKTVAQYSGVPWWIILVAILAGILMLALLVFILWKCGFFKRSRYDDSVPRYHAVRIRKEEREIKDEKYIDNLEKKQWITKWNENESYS

[2] = target: T1, Integrin α6 on human tumor cells with high integrin α6 expression (human); test: flow cytometry, FITC-labelled peptide on S18 cells (high integrin α6), 37 °C, 2 h
[3] = target: T1, Integrin α6 on human tumor cells with high integrin α6 expression (human); test: flow cytometry, FITC-labelled peptide on Huh7 cells (high integrin α6), 37 °C, 2 h
[4] = target: T1, Integrin α6 on human tumor cells with high integrin α6 expression (human); test: flow cytometry, FITC-labelled peptide on HCCLM3 cells (high integrin α6), 37 °C, 2 h
[5] = target: T1, Integrin α6 on human tumor cells with high integrin α6 expression (human); test: flow cytometry, FITC-labelled peptide on MDA-MB-231 cells (high integrin α6), 37 °C, 2 h

Measured: binding

B1: …-PEG4-K-FITC (peptide)
peptide: CRWYDENAC
modifications: cyclic peptide formed by cysteine C at both ends; C-terminus carries PEG4-K-FITC
binds: [1] | [2] | [3] | [4] | [5]
